Laboratory results from publication PMC9117333.
Results are given in words; binding and its absence hold for the method and conditions named. Binding seen in cells or lysates may run through a third protein. Some entries that bind do so weakly or less than the wild type. Tags and fused reporters may be left off the sequences shown.

Chains of the proteins cited; added tags and fusions are not shown.
UniProt Q8N122: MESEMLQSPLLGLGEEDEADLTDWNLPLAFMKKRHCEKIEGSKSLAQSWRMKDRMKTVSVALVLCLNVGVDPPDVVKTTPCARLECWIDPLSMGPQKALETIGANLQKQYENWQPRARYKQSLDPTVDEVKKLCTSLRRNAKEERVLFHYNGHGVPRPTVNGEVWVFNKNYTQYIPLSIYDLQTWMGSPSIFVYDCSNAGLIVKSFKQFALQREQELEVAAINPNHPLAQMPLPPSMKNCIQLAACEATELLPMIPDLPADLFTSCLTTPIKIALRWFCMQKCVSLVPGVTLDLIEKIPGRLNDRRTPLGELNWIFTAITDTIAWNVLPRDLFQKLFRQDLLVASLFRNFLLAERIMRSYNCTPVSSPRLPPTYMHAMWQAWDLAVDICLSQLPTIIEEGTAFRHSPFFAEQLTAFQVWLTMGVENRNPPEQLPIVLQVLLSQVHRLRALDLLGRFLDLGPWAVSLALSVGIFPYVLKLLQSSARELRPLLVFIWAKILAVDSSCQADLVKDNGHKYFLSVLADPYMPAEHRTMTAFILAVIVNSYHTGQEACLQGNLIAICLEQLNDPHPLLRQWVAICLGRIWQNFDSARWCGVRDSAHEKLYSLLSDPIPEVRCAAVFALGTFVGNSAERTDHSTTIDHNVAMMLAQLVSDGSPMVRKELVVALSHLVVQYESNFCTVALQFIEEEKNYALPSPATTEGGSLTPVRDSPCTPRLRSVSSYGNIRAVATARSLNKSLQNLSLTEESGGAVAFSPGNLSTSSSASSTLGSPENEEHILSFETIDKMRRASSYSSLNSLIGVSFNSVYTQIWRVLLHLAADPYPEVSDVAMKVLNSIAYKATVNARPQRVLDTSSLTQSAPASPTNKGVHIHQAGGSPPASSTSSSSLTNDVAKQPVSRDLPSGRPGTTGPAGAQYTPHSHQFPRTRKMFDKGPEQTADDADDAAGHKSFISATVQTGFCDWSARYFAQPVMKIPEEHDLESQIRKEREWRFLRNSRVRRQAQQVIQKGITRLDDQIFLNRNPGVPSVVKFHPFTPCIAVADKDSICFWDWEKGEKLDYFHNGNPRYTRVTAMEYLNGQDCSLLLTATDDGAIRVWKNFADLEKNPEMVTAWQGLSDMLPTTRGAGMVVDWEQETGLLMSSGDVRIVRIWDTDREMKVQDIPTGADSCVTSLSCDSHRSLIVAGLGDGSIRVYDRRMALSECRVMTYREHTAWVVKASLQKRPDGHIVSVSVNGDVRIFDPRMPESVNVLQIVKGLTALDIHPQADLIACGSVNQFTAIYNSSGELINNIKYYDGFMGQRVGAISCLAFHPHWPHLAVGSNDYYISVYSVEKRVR
UniProt Q02248: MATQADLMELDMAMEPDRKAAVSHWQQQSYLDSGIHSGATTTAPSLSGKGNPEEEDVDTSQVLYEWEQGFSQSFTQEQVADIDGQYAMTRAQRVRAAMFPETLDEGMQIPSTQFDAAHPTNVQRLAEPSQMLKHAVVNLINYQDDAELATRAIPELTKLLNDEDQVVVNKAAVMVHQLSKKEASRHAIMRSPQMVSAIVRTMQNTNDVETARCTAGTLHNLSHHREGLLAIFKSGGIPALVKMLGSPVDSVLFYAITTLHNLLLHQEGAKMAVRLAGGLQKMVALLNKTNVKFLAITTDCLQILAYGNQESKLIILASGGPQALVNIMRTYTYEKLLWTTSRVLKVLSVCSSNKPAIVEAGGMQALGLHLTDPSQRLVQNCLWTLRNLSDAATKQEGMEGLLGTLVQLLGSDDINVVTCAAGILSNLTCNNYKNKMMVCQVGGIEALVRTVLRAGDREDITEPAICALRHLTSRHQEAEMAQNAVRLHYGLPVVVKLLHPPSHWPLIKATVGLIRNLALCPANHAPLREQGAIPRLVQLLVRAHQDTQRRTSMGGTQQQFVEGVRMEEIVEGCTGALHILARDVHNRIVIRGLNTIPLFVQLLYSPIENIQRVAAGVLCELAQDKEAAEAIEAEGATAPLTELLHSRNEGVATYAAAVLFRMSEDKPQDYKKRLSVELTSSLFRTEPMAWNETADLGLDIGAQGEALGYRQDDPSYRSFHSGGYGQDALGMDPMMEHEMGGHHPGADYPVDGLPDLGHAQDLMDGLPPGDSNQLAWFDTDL

Assays:
Experiment in all cases: co-IP; Neuro2A cells co-transfected with the tagged constructs (3 µg DNA each), lysed after 48 h in RIPA buffer (50 mM Tris/HCl pH 8, 100 mM NaCl, 1 mM EDTA, 0.1% SDS, 1% Nonidet P-40, 0.5% sodium deoxycholate); lysate incubated overnight at 4 °C with antibodies (Flag, GFP or c-myc) bound to protein G-Sepharose, washed with RIPA; western blot; bound protein normalised to total protein and to the immunoprecipitated bait
[1] = biological target: HA-Raptor (human, HA-CMV-Raptor) (human) (UniProt Q8N122)
[2] = biological target: GFP-β-catenin (mouse, pEGFP-β-catenin) (mouse) (UniProt Q02248)
[3] = biological target: T1, GFP-LGN (mouse, pEGFP-C1-LGN; coded by the GPSM2 gene) (mouse) (UniProt Q8VDU0)
T1 sequence: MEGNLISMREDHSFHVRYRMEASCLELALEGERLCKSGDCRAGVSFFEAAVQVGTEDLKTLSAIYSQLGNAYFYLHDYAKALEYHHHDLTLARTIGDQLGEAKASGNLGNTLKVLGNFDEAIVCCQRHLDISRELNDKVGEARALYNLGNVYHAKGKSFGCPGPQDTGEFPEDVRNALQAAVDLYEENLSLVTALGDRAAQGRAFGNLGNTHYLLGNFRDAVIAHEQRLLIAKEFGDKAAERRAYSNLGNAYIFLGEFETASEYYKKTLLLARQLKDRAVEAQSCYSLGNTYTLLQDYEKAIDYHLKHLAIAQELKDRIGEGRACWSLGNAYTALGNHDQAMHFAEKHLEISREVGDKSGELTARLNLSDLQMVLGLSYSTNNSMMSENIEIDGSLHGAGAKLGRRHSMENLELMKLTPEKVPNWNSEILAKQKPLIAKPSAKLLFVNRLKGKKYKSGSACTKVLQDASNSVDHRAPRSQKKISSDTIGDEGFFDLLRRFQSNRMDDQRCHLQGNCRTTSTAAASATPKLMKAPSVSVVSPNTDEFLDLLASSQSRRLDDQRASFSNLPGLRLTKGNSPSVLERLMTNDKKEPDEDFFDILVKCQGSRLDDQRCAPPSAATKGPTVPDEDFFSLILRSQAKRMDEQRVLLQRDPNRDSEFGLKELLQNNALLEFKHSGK

binding [1]: binds
binding [2]: binds
binding [3]: binds
B1: Flag-DLGAP4 (wild type human Disks large-associated protein 4) (protein, UniProt Q9Y2H0-1 1-989)
chain: MKGLGDSRPRHLSDSLDPPHEPLFAGTDRNPYLLSPTEAFAREARFPGQNTLPGDGLFPLNNQLPPPSSTFPRIHYNSHFEVPEESPFPSHAQATKINRLPANLLDQFEKQLPIHRDGFSTLQFPRGEAKARGESPGRIRHLVHSVQRLFFTKAPSLEGTAGKVGGNGSKKGGMEDGKGRRAKSKERAKAGEPKRRSRSNISGWWSSDDNLDGEAGAFRSSGPASGLMTLGRQAERSQPRYFMHAYNTISGHMLKTTKNNTTELTAPPPPPAPPATCPSLGVGTDTNYVKRGSWSTLTLSHAHEVCQKTSATLDKSLLKSKSCHQGLAYHYLQVPGGGGEWSTTLLSPRETDAAAEGPIPCRRMRSGSYIKAMGDEDSDESGGSPKPSPKTAARRQSYLRATQQSLGEQSNPRRSLDRLDSVDMLLPSKCPSWEEDYTPVSDSLNDSSCISQIFGQASLIPQLFGHEQQVREAELSDQYEAACESACSEAESTAAETLDLPLPSYFRSRSHSYLRAIQAGCSQEEDSVSLQSLSPPPSTGSLSNSRTLPSSSCLVAYKKTPPPVPPRTTSKPFISVTVQSSTESAQDTYLDSQDHKSEVTSQSGLSNSSDSLDSSTRPPSVTRGGVAPAPEAPEPPPKHAALKSEQGTLTSSESHPEAAPKRKLSSIGIQERTRRNGSHLSEDNGPKAIDVMAPSSESSVPSHSMSSRRDTDSDTQDANDSSCKSSERSLPDCTPHPNSISIDAGPRQAPKIAQIKRNLSYGDNSDPALEASSLPPPDPWLETSSSSPAEPAQPGACRRDGYWFLKLLQAETERLEGWCCQMDKETKENNLSEEVLGKVLSAVGSAQLLMSQKFQQFRGLCEQNLNPDANPRPTAQDLAGFWDLLQLSIEDISMKFDELYHLKANSWQLVETPEKRKEEKKPPPPVPKKPAKSKPAVSRDKASDASDKQRQEARKRLLAAKRAASVRQNSATESADSIEIYVPEAQTRL
